The results in this text go back to publication PMC4122391, “Analysis of Functions of VIP1 and Its Close Homologs in Osmosensory Responses of Arabidopsis thaliana”.

The data set addresses T1, GST-VIP1ΔN164 (Arabidopsis thaliana) (UniProt Q9MA75).
T1 sequence (looked up): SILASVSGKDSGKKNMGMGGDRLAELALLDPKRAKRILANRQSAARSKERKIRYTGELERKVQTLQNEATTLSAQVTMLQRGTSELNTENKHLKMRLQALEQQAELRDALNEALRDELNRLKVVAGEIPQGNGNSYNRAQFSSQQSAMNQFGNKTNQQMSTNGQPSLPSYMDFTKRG
Kind of data set: competition with a labelled probe. As to conditions: EMSA, CYP707A1 probe, recombinant protein, residues 165-341, protein details: N-terminal GST. On the technique in general: In EMSA bound probe runs differently from free probe, usually more slowly.

Setting [1] is: less effective than A1/A3 and rbe.

The comparison behind a weaker result is the experiment's own reference, which may not be listed here. Tags and fusion partners may be left off the protein sequences shown. For at least one entry, the source does not settle the construct or the ends of the probe. At least one verdict was read from the data and is not stated in words by the source.

For “CCCCAAAGTCCAGCTTGAAAT (double strand) [rbe (RSG-binding element)]”, for the setting “less effective than A1/A3”, the binding result was “binds more weakly”.

As to “TCAGACACGTGGCATG (double strand) [G-box]”, the binding result under setting [1] was “binds more weakly”.

Regarding “CATGCTCCGTTGGATGT (double strand) [vs-2]”, under setting [1], the binding result is given as “binds more weakly”.

With “CCAGTGTGGCGCTGG (double strand) [Box-II]”, the binding result under setting [1] is given as “binds more weakly”.
